Source: article PMC12389442 (Pharmaceuticals, 2025)

Assay: general procedure: Fmoc solid-phase peptide synthesis
Conditions: whole synthesis, 214 nm, TFA salt

Row | Substance | final HPLC purity
1 | H-DRVYIHPFHL-OH | 97.88%
2 | H2N-DRVYIHPF-COOH | 97.30%
